Reference: PubChem BioAssay AID590 (National Center for Advancing Translational Sciences (NCATS), 2007)
Several values for one entry are separate records, joined by “and”; a condition that tells them apart may be missing. Identical values can stand only once. The whole screen tested about 59,000 compounds, of which about 6,500 (11%) were called active. The inconclusive results got no clear call from the source; some entries with a clear call stand among them for comparison. Cut-off read from the data, not from the text of the source: active = max dye-equivalent concentration above about 10 nM; inconclusive = mostly about 1.1 nM to 9.6 nM; inactive = weaker than that.

Assay: qHTS Assay for Spectroscopic Profiling in A350 Spectral Region
Settings: Compound autofluorescence, 340/450 nm, Alexa 350 dye-equivalents; hits give high values

SMILES	max dye-equivalent concentration
Cn1cnc(S(=O)(=O)NCc2cccs2)c1	inactive
Cc1ccc(-c2nnc(N3CCN(S(C)(=O)=O)CC3)c3ccccc23)cc1	inconclusive: 1.5e-09 M
CC(C)Sc1nc2c(c(=O)[nH]c(=O)n2C)n1CCc1ccccc1	inactive
COc1ccc(N2CCN(CC(=O)Nc3cc4c(cc3C(C)=O)OCO4)CC2)cc1	inconclusive: 2e-09 M
Cc1ccc(Cl)c(Nc2ccccc2C(=O)O)c1Cl	inactive
CCCOc1ccc(/C(O)=C2/C(=O)C(=O)N(CCN(C)C)C2c2ccc(O)c(OC)c2)cc1 (stereo not given)	inconclusive: 1.7e-09 M
CCOC(=O)C1CCCN(c2nc3ccccc3nc2C(C#N)C(=O)OC(C)C)C1 (stereo not given)	active: 1.3e-08 M
COc1cc(C2C(C#N)=C(N)Oc3cc(C)n(CC4CCCO4)c(=O)c32)cc2c1OCO2 (stereo not given)	inconclusive: 1.6e-09 M
S=c1oc(-c2ccncc2)nn1CCc1ccncc1	inactive
COC(=O)c1[nH]c2ccc(C)cc2c1NC(=O)CN1CCN(Cc2ccccc2)CC1	inconclusive: 6e-09 M
CN(Cc1ccccc1)C(=O)CN(C1CCCCC1)S(C)(=O)=O	inconclusive: 3.5e-09 M
COC(=O)Nc1nc2ccc(SC(C)C)cc2[nH]1	inconclusive: 8.3e-09 M
CN(C)Cc1nc2ccccc2c(=O)n1Cc1nc(C(C)(C)C)cs1	inconclusive: 1.1e-09 M
CC(C)(C)n1nnnc1C(c1ccccc1F)N(Cc1ccco1)CC1CCCO1 (stereo not given)	inactive
CC(C)C(=O)Nc1cccc2nsnc12	inconclusive: 3.4e-09 M
CC1Cc2cc(/C(O)=C3/C(=O)C(=O)N(CCN4CCOCC4)C3c3cccc(Cl)c3)ccc2O1 (stereo not given)	inconclusive: 1.1e-09 M
Cc1c2c(n3c(nc4ccccc43)c1C#N)N(Cc1cccnc1)CC2	active: 1.9e-07 M
COc1ccc(OC)c(-c2cc(C(=O)NCc3cccs3)no2)c1	active: 1.3e-08 M
Cc1ccc2[nH]cc(C(=O)CN3CCC4(CC3)OCCO4)c2c1	inconclusive: 2.4e-09 M
N[C@]1(C(=O)O)CCc2cc(C(=O)O)ccc21	inconclusive: 5e-09 M
Cc1cc(C)c(C#N)c(Nc2ccccc2Cl)n1	inconclusive: 8.5e-09 M
CC1(C)Cc2ccccc2-c2nnc(SCC(=O)Nc3nc4ccccc4s3)n21	inconclusive: 4.8e-09 M
CCOc1cccc(C2C(C(=O)c3ccc(C)o3)=C(O)C(=O)N2c2nccs2)c1 (stereo not given)	inconclusive: 2.6e-09 M

SMILES	max dye-equivalent concentration
COc1ccc(OC)c(NC(=O)NC2(C(F)(F)F)Oc3ccccc3O2)c1	inconclusive: 5.7e-09 M
CC(OC(=O)c1ccccc1NCc1ccco1)C(=O)Nc1ncc(Cl)cc1Cl (stereo not given)	active: 4.1e-07 M
CN(C)C1NC(=O)c2cc(-c3ccccc3)sc2N1 (stereo not given)	inconclusive: 3.1e-09 M
CC(=O)N1CCC2(CC1)CC(=O)c1cc(OCC(=O)NCc3ccco3)ccc1O2	active: 6.4e-07 M
Cc1ccc(C(C(=O)NC2CCCCC2)N(C(=O)c2csnn2)C2CCCC2)o1 (stereo not given)	inconclusive: 1.2e-09 M
COc1ccccc1CCn1c(=O)c(-c2cn(C)c3ccccc23)nc2cncnc21	inactive
O=S(=O)(Nc1ccc2c(c1)nc1n2CCN(Cc2ccccc2)C1)c1ccccc1	active: 1.2e-08 M
O=C(Cc1cccs1)Nc1ccc(S(=O)(=O)Nc2ncccn2)cc1	inactive
CCCOc1ccc([C@@H]2C3CN(C(=O)OCC)CC=C3C(C#N)=C(N)C2(C#N)C#N)cc1OC (stereo not given in full)	inconclusive: 3.4e-09 M
CCn1nc(C(=O)O)c(=O)c2cc3c(cc21)OCO3	inconclusive: 5.7e-09 M and inconclusive: 5.3e-09 M and inconclusive: 3e-09 M
Cc1ccc(NC(=O)Cc2cn3ccsc3n2)nc1	inconclusive: 3.2e-09 M
Cc1cc(C)c(C)c(S(=O)(=O)Nc2ccccc2C(=O)NCCCn2ccnc2)c1C	inconclusive: 5.9e-09 M
CCC(c1nnnn1CCOC)N(Cc1ccc(C)cc1)Cc1cc2cc(OC)ccc2[nH]c1=O (stereo not given)	active: 5.3e-08 M
O=C(Nc1nc(-c2cccs2)cs1)c1cccc(S(=O)(=O)N2CCCCCC2)c1	active: 1.3e-08 M
Cc1ccc2nc3ccc(N4CCCC4)nn3c(=O)c2c1	active: 9.4e-08 M
CCC(C)Sc1nc2c(c(=O)[nH]c(=O)n2C)n1Cc1ccc(Cl)cc1 (stereo not given)	inactive
C/C(NCCCn1ccnc1)=C(\C#N)C(N)=O	active: 2.4e-08 M
CCOC(=O)c1c(C)[nH]c(C(=O)CSc2ccccc2)c1C	inactive
O=C(CN1CCCCCC1=O)OCc1ncc(-c2ccccc2)o1	inactive
O=C(CSc1nc(C2CCCCC2)n(-c2ccccc2)n1)NCCN1C(=O)CSC1=O	inconclusive: 5.4e-09 M
Cn1c(=O)c2cc(S(=O)(=O)NCCC(=O)N3CC=C(c4ccccc4)CC3)ccc2n(C)c1=O	inconclusive: 1.6e-09 M
CN(CC(=O)Nc1nccs1)S(=O)(=O)c1ccc(F)cc1	inconclusive: 7.3e-09 M
Cn1c(=O)[nH]c(=O)c2c1nc(SCC(O)CO)n2Cc1ccccc1Cl (stereo not given)	active: 1.6e-08 M

SMILES	max dye-equivalent concentration
Cn1c2ccccc2c2ncn(CCN3CCOCC3)c(=O)c21	inconclusive: 1.5e-09 M
CSCC[C@H](NC(=O)NCc1cccs1)C(=O)O	inactive
Cc1ccccc1-n1c(C)nnc1SCc1nc2ccccc2s1	inconclusive: 6.4e-09 M
COc1nc(C)ccc1-c1noc(-c2ccncc2)n1	inconclusive: 1.4e-09 M
O=C1CC(c2cccc(Cl)c2)CC(O)=C1C=NCCCO (stereo not given)	inconclusive: 1.1e-09 M
CC(=O)Nc1cc2c(cc1Br)OCCO2	inconclusive: 1.9e-09 M
COc1ccc(-c2ccc(-c3noc(-c4ccncc4)n3)c(OC)n2)cc1	active: 2.4e-08 M
COc1ccc(-c2cc(C(=O)NCCN3CCOCC3)c3ccccc3n2)cc1	active: 5.7e-07 M
C[C@H](N)c1nnc(SCc2ccc(Cl)cc2Cl)o1	inconclusive: 1.6e-09 M
OCCSc1nncn1/N=C/c1c[nH]c2ccccc12	inactive
COc1ccccc1NC(=O)CSc1nnc(-c2ccoc2C)n1CCc1ccccc1	inconclusive: 6.3e-09 M
Cc1cc(C)c2cc(CN(Cc3ccc4c(c3)OCO4)Cc3nnnn3Cc3ccco3)c(=O)[nH]c2c1	inconclusive: 1.6e-09 M
O=C(CCSCc1ccccc1F)N1CCN(c2ccccn2)CC1	inactive
Cn1cccc1C(=O)N1CCC2(CC1)CN(c1ccncc1)C2	inactive
O=C(Nc1ccncc1)c1c(F)cccc1F	inactive
CCOc1ccc2[nH]c(C)c(CN3CCCCC3)c(=O)c2c1	inconclusive: 6.1e-09 M
COCCOc1ccc(C(F)(F)F)cc1NC(=O)COC(=O)c1c(C)noc1C	inactive
Cc1cccc(CNc2cc(-c3cccnc3)ncn2)c1	inactive
O=c1cnc2cnc(Oc3ccccc3)nc2n1Cc1cccs1	inactive
CC1=C(C(=O)O)N2C(=O)[C@@H](NC(=O)[C@@H](N)c3ccc(O)cc3)[C@@H]2SC1	active: 1.2e-05 M
COc1cccc(-c2cc(NCCc3c[nH]c4ccc(OC)cc34)ncn2)c1	inactive
CCCS(=O)(=O)N1CCC(C(=O)NC2CCCC(C)C2C)CC1 (stereo not given)	inconclusive: 7.7e-09 M
O=S(=O)(NCc1cccnc1)c1cccc2nsnc12	active: 2.1e-08 M

SMILES	max dye-equivalent concentration
Nc1c(S(=O)(=O)c2cccc(Cl)c2)c2nc3ccccc3nc2n1/N=C/c1ccc(O)c(O)c1	inactive
Cc1cccc2cc3c(N)c(C#N)sc3nc12	active: 2.1e-08 M
CC(C)Cc1ccc(S(=O)(=O)N2CCN(C(=O)c3ccco3)CC2)cc1	inactive
CCCCCCOC(=O)C(C#N)c1nc2ccccc2nc1N1CCN(CC)CC1 (stereo not given)	inconclusive: 4.5e-09 M
COC(=O)c1[nH]c2cc(OC)ccc2c1NC(=O)CCN1CCCCC1	inconclusive: 1.1e-09 M
CN(C)CCCNc1oc(-c2ccccc2)nc1C#N	inconclusive: 7.7e-09 M
O=C(Nc1ccc2oc(-c3ccccc3Cl)nc2c1)c1ncn[nH]1	inconclusive: 7.4e-09 M
COc1cccc(Cn2c(=O)c(-c3ccc(F)cc3)nc3cnc(N4CCNCC4)nc32)c1	inconclusive: 8.6e-09 M
CN(C)c1ccc(-c2ccccc2)nn1	inconclusive: 3.4e-09 M
CCOc1ccc(-c2nc(C#N)c(NCC(C)C)o2)cc1	inconclusive: 2.7e-09 M
COc1ccc(Cn2nnnc2C(c2cc(OC)ccc2OC)N2CCC(C(N)=O)CC2)cc1 (stereo not given)	inconclusive: 1.1e-09 M
CC(C)(C)c1ccc(O)c(CN(Cc2c(O)ccc3ccccc23)C2CCCCC2)c1	inconclusive: 7.5e-09 M
O=C(c1ccco1)N1CCN(C(c2ccc(F)cc2)c2nnnn2CC2CCCO2)CC1 (stereo not given)	inconclusive: 1.1e-09 M
CCOC(=O)c1ccc(NC(=O)c2c(O)c3ccccc3n(C)c2=O)cc1	inconclusive: 4e-09 M
O=C(c1ccccc1)c1ccc(N2CCNCC2)cc1	active: 2e-08 M
CCCCn1nnnc1NCc1ccc(OC)c(OC)c1	inactive
COc1ccc(/C(O)=C2/C(=O)C(=O)N(CCCN(C)C)C2c2ccc(C)o2)cc1Cl (stereo not given)	inactive
CCc1nnc2sc(-c3cc(-c4ccccc4)nc4ccccc34)nn12	active: 2.9e-08 M
Cn1c(=O)c2c(nc(SCCN3CCCCC3)n2Cc2ccccc2)n(C)c1=O	inconclusive: 1.3e-09 M
Cc1cccc(C#N)c1NC1=CC(=O)CC(C)(C)C1	inconclusive: 2.8e-09 M
c1ccc2c(c1)OCC(c1nnc3n1-c1ccccc1SC3)O2 (stereo not given)	inactive
